Source: patent US9513287
No constants are given. Whether binding was seen depends on the method and setting.

Tests used:
Shiga toxin 1 (Stx1) [1] = molecular target: Shiga toxin 1 (Stx1) (UniProt P08026); experiment: direct ELISA (FIG. 13B)
[2] = molecular target: Shiga toxin 2a (Stx2a) holotoxin (Escherichia coli) (UniProt P09385); experiment: direct ELISA (FIG. 13B)
Shiga toxin 1 (Stx1) [3] = molecular target: Shiga toxin 1 (Stx1) (UniProt P08026); experiment: direct ELISA, wells coated with 250 ng/mL toxin, luminescent readout
[4] = molecular target: Shiga toxin 2a (Stx2a) holotoxin (Escherichia coli) (UniProt P09385); experiment: as above

B1: monoclonal antibody Stx2f-1 (antibody, V domains shown)
VH: QVQLQQSGPEVVRPGVSVKISCKGSGYTFTDYAIHWVKQSHAKSLEWIGFISTYNGNPNYNKEFKGKATVTVDKSSSTAYLELARLTSEDSAIYFCARDFYGSSSWFAYWGQGTLVTVSA
VL: DIVLTQTPASLAVSLGQRATISCRASESVDSYGDDFMHWYQQKPGQPPKLLIYRVSNLESGIPVRFSGSGSRTDFTLTINPVEADDDATYYCQQSNENPYTFGGGTKLEIK
binding (Shiga toxin 1 (Stx1) [1]): no binding (tested: antigen coated at 250 ng/mL) | binding [2]: no binding (tested: antigen coated at 250 ng/mL) | binding (Shiga toxin 1 (Stx1) [3]): no binding | binding [4]: no binding
